Results: the supplement of paper PMC10849652
This is one part of the list.

The chains behind the UniProt entries cited, without tags or fusion partners. Where a name states a change or a piece, a line headed by the entry shows the natural chain unless it says otherwise.
UniProt Q9NZT2: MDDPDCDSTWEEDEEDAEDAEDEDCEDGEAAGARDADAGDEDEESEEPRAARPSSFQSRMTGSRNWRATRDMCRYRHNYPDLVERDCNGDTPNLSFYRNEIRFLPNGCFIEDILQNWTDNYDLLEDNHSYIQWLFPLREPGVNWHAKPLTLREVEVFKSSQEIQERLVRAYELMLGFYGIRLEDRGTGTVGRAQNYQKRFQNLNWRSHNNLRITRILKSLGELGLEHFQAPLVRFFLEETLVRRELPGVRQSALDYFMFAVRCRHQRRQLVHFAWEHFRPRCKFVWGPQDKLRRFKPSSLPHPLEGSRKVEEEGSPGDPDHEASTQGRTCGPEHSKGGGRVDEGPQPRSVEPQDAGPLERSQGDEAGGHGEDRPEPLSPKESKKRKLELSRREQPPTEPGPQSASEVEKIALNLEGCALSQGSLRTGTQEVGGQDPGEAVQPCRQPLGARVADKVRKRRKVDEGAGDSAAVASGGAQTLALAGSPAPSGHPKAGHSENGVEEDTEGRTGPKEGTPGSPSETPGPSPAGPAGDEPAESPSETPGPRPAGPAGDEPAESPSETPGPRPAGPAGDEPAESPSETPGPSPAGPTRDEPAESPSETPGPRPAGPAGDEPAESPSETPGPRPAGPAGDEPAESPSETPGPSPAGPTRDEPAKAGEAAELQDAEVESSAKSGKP
UniProt Q9NWU1, whole entry, looked up: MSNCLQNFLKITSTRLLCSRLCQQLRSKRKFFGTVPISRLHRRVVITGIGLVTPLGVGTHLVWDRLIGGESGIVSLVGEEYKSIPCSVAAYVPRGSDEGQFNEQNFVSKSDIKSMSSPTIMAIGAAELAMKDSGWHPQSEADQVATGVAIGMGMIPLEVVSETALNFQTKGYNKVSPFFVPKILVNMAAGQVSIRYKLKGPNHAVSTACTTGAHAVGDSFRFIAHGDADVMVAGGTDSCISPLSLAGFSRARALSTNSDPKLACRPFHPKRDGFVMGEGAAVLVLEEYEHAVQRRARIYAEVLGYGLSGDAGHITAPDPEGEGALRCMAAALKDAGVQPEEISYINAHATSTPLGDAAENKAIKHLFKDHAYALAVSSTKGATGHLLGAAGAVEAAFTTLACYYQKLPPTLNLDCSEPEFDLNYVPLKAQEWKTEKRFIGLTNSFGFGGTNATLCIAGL
UniProt P52948: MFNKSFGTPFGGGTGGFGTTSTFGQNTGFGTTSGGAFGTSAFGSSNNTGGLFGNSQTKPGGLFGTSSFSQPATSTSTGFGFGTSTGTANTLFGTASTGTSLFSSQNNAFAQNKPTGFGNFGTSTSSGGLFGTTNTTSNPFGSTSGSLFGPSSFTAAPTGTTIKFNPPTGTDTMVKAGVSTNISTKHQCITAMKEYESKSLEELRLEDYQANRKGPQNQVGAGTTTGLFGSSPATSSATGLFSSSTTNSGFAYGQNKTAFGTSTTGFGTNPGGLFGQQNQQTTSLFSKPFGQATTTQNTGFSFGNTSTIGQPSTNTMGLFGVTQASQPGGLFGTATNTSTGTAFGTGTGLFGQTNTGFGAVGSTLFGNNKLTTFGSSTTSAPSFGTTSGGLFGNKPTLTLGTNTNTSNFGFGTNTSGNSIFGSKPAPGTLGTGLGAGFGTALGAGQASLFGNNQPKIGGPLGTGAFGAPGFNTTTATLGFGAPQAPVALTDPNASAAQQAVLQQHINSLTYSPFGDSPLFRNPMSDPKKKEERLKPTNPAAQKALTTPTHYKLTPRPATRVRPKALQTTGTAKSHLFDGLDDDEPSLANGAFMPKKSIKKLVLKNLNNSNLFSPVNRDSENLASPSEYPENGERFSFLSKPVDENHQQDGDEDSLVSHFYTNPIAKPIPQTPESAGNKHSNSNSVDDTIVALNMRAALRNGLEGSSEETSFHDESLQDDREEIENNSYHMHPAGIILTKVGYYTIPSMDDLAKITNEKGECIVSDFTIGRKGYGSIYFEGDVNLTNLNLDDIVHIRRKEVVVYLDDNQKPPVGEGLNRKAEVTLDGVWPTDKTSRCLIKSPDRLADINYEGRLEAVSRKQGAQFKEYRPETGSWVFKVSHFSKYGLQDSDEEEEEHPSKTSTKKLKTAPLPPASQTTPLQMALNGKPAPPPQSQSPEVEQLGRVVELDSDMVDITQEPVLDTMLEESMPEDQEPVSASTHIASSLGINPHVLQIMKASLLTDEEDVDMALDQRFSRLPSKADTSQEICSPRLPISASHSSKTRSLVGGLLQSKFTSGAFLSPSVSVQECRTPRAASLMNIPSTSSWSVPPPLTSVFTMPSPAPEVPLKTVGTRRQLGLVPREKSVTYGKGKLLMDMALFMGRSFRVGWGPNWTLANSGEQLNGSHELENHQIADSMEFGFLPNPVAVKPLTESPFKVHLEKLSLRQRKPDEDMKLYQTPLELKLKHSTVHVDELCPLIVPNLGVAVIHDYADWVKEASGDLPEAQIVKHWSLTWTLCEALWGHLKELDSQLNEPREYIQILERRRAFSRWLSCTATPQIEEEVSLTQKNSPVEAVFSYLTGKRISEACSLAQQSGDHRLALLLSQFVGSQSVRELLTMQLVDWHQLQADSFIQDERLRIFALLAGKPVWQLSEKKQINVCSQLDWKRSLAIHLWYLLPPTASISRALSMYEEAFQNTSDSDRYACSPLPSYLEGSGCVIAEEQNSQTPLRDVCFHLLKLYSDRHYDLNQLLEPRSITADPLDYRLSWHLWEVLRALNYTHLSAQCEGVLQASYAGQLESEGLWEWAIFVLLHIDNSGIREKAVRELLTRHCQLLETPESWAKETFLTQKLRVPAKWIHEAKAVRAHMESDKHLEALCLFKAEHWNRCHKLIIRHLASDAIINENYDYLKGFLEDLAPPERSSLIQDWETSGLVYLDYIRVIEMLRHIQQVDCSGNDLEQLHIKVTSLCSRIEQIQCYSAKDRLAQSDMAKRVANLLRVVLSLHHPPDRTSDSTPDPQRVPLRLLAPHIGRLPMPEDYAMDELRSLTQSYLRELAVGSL
UniProt O43252: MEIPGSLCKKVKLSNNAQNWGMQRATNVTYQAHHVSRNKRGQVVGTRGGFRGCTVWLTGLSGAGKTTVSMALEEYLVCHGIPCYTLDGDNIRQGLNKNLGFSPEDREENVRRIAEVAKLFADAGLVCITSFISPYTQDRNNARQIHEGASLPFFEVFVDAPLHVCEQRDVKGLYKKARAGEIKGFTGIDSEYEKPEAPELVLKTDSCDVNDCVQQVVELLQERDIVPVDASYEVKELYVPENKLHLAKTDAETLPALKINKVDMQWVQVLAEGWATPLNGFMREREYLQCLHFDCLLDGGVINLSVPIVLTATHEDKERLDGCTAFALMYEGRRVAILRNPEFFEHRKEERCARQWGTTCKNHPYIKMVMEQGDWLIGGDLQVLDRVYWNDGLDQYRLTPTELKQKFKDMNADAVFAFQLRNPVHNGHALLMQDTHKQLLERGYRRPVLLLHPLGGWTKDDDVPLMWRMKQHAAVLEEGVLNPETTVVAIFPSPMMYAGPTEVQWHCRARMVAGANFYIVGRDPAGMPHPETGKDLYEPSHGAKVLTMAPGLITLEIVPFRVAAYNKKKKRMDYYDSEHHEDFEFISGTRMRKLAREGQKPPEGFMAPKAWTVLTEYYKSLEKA
UniProt Q7Z3B4: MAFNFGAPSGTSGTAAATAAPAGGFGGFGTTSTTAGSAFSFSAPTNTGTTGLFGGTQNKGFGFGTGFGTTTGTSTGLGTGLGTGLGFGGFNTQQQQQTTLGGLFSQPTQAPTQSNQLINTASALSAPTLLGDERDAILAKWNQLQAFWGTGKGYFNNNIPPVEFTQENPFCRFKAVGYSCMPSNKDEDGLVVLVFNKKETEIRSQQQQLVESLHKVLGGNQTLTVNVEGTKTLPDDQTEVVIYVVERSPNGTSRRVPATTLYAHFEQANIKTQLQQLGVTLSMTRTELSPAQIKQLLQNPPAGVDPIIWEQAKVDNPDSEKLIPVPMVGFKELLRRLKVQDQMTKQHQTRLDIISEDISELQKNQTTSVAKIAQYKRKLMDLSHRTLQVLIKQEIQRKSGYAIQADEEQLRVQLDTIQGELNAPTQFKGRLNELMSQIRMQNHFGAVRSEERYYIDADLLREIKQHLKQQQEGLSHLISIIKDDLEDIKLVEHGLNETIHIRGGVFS
UniProt Q5SWX8: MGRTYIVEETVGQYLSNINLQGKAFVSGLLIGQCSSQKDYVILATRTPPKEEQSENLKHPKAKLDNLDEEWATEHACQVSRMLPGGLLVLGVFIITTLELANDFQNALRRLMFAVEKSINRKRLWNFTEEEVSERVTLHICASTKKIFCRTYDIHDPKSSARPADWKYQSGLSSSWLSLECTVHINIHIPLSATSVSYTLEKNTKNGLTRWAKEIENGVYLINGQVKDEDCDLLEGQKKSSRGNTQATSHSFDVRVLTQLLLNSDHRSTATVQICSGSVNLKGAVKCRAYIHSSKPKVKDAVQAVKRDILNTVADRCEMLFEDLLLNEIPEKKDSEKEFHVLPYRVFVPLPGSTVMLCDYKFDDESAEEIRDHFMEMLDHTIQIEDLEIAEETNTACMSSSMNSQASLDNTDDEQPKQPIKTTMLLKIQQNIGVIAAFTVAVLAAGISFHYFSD
UniProt Q01968: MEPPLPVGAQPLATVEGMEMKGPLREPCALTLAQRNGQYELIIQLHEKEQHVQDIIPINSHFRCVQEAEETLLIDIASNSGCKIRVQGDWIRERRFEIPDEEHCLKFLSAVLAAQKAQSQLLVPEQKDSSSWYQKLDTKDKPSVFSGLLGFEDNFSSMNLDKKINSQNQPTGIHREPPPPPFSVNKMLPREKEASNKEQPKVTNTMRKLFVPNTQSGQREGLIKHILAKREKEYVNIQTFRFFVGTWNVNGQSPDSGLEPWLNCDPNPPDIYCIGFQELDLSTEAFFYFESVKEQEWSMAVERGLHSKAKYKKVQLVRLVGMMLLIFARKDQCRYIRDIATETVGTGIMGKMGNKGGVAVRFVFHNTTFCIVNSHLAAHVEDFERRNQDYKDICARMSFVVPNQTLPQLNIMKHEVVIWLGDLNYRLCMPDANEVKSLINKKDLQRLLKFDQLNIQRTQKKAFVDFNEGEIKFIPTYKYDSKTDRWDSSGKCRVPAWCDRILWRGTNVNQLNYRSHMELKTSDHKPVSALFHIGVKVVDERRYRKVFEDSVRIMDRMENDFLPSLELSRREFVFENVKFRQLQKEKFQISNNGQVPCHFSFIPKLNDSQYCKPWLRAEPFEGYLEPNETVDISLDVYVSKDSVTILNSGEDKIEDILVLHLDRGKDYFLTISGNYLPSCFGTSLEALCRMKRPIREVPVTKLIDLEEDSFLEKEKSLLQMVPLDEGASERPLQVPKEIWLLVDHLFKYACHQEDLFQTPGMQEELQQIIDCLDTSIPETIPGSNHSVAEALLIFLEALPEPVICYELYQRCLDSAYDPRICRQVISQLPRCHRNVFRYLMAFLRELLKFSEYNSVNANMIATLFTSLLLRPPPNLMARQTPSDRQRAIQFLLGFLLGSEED
UniProt Q8N1F7: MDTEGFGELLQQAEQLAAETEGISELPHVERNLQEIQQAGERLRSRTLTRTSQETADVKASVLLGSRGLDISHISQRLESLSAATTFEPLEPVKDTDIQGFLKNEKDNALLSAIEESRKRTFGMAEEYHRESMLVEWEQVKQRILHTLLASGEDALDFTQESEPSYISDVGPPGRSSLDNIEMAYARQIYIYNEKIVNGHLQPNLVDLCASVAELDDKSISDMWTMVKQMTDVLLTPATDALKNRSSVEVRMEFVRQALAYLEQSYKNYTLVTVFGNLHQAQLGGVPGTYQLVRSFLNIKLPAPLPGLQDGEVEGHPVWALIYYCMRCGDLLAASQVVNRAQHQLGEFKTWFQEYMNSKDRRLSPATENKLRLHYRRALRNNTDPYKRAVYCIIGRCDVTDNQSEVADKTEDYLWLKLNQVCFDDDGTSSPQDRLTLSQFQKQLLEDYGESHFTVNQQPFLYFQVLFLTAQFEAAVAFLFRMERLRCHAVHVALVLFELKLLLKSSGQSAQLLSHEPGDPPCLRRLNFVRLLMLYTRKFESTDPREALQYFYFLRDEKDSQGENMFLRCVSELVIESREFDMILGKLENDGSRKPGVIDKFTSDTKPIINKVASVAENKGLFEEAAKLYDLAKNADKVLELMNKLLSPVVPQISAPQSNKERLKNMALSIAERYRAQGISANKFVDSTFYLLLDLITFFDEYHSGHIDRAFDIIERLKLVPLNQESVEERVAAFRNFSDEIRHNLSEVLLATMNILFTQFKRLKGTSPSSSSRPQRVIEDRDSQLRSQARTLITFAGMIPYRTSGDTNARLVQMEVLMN

Columns and labels:
Experiment in all cases: log2 fold change, soluble protein after heating vs DMSO (PISA); higher = thermal stabilisation; K562 lysate, 10 uM; active = over 0.2 and 3.5 SD of the protein, either way, in both replicates (recomputed)
[1] = compound: CCCS(=O)(=O)Nc1ccc(F)c(C(=O)c2c[nH]c3ncc(-c4ccc(Cl)cc4)cc23)c1F [vemurafenib]
Procedure, shortened: (§1)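 A 30 min treatment with 10 μM compound was applied to crude K562 extract at 1 mg/mL protein in PBS pH 7.4 with 1 mM MgCl2. Heating for 3 min spanned 48°C-58°C, after which aliquots were pooled, adjusted to 0.5% NP-40 at 4°C and spun at 21,000xg for 90 min. TMTpro 16plex LC-MS/MS of the supernatant, with channel sums equalised, gave values recorded as log-two fold change in thermal stability against solvent controls, from duplicates.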

[2] = compound: CCCS(=O)(=O)Nc1ccc(F)c(C(=O)c2c[nH]c3ncc(Cl)cc23)c1F
Procedure, shortened: as §1

[3] = compound: CCN(CCCOc1ccc2c(Nc3cc(CC(=O)Nc4cccc(F)c4)[nH]n3)ncnc2c1)CCOP(=O)(O)O [barasertib]
Procedure, shortened: as §1

[4] = compound: CC[C@@H]1C(=O)N(C)c2cnc(Nc3ccc(C(=O)NC4CCN(C)CC4)cc3OC)nc2N1C1CCCC1
Procedure, shortened: as §1

[5] = compound: CC[C@@H]1C(=O)N(C)c2cnc(Nc3ccc(C(=O)N[C@H]4CC[C@H](N5CCN(CC6CC6)CC5)CC4)cc3OC)nc2N1C(C)C [volasertib]
Procedure, shortened: as §1

[6] = compound: CCn1c(C(=O)N(C2CC2)C2CC2)cc2c3c(ncn3C)c(Nc3cc(C)n(C)n3)nc21
Procedure, shortened: as §1

[7] = compound: CCn1cc(-c2ccnc3[nH]c(-c4cccc(CN(C)C)c4)cc23)c(-c2ccc(NC(=O)N(C)C)cc2)n1
Procedure, shortened: as §1

[8] = compound: CN1CCC(CNc2ccc3ncc(-c4cccc(OC(F)(F)F)c4)n3n2)CC1
Procedure, shortened: as §1

[9] = compound: CN1CCN(CCOc2cc(OC3CCOCC3)c3c(Nc4c(Cl)ccc5c4OCO5)ncnc3c2)CC1 [saracatinib]
Procedure, shortened: as §1

[10] = compound: CN1CCN(c2nc(C3=C(c4c[nH]c5ccccc45)C(=O)NC3=O)c3ccccc3n2)CC1 [sotrastaurin]
Procedure, shortened: as §1

[11] = compound: CN1CC[C@H](c2c(O)cc(O)c3c(=O)cc(-c4ccccc4Cl)oc23)[C@H](O)C1 [alvocidib]
Procedure, shortened: as §1

[12] = compound: CN1CCc2c(c3ccccc3n2Cc2ccc(C(=O)NO)cc2)C1 [Tubastatin A]
Procedure, shortened: as §1

[13] = compound: CNC(=O)C1=CC=CC=C1NC2=NC(=NC=C2Cl)NC3=C(C=C(C=C3)N4CCOCC4)OC
Procedure, shortened: as §1

[14] = compound: CNC(=O)c1ccc(Nc2ncc(C(F)(F)F)c(NCc3nccnc3N(C)S(C)(=O)=O)n2)cc1 [defactinib]
Procedure, shortened: as §1

[15] = compound: CNc1nc(-c2ccc3c(N)n[nH]c3c2)cc(N2C[C@@H](C(=O)NC3CCCCC3)CC[C@H]2C)n1
Procedure, shortened: as §1

[16] = compound: COC(=O)N[C@@H](C)CNc1nccc(-c2cn(C(C)C)nc2-c2cc(Cl)cc(NS(C)(=O)=O)c2F)n1 [encorafenib]
Procedure, shortened: as §1

[17] = compound: COC(=O)[C@H](CCSC)NC(=O)C1=C(C=C(C=C1)NC[C@H](CS)N)C2=CC=CC=C2
Procedure, shortened: as §1

[18] = compound: COc1cc(Nc2ncc3c(n2)-c2ccc(Cl)cc2C(c2c(F)cccc2OC)=NC3)ccc1C(=O)O [alisertib]
Procedure, shortened: as §1

[19] = compound: COc1cc2nc(-c3cc(F)ccc3O)nc(N[C@@H]3CNC[C@H]3C(C)(C)O)c2cc1OC
Procedure, shortened: as §1

[20] = compound: COc1cc2ncnc(Nc3ccc(F)c(Cl)c3)c2cc1OCCCN1CCOCC1 [gefitinib]
Procedure, shortened: as §1

Measured: log2 fold change

OGFR (UniProt Q9NZT2)
inactive: [1] -0.033 | [2] 0.025 | [3] 0.003 | [4] -0.012 | [5] -0.067 | [6] 0.004 | [7] 0.12 | [8] -0.039 | [9] 0.022 | [10] 0.053 | [11] 0.022 | [12] -0.089 | [13] 0.002 | [14] -0.015 | [15] -0.03 | [16] 0.02 | [17] 0.089 | [18] -0.003 | [19] -0.003 | [20] -0.004

OXSM (UniProt Q9NWU1)
inactive: [1] -0.013 | [2] 0.036 | [3] -0.045 | [4] 0.042 | [5] 0.035 | [6] -0.028 | [7] -0.111 | [8] 0.069 | [9] 0 | [10] -0.007 | [11] -0.01 | [12] 0.062 | [13] -0.004 | [14] 0.003 | [15] 0.035 | [16] -0.033 | [17] -0.031 | [18] -0.03 | [19] -0.016 | [20] 0

OXA1L (UniProt Q15070)
inactive: [1] -0.01 | [2] 0.001 | [3] -0.003 | [4] -0.04 | [5] 0 | [6] 0.016 | [7] -0.137 | [8] -0.022 | [9] -0.048 | [10] -0.012 | [11] 0.018 | [12] 0.006 | [13] 0.034 | [14] -0.024 | [15] -0.077 | [16] 0.017 | [17] -0.04 | [18] 0.038 | [19] -0.078 | [20] -0.068

NUP98 (UniProt P52948)
inactive: [1] 0.001 | [2] 0.035 | [3] 0.02 | [4] -0.005 | [5] -0.071 | [6] 0.031 | [7] -0.062 | [8] 0.019 | [9] 0.073 | [10] -0.005 | [11] -0.019 | [12] -0.117 | [13] 0.029 | [14] 0.031 | [15] 0.047 | [16] 0.064 | [17] -0.04 | [18] 0.01 | [19] 0.017 | [20] 0.011

PAPSS1 (UniProt O43252)
inactive: [1] -0.024 | [2] -0.007 | [3] -0.004 | [4] -0.055 | [5] -0.002 | [6] -0.007 | [7] -0.092 | [8] 0.046 | [9] -0.039 | [10] 0.009 | [11] -0.034 | [12] -0.015 | [13] 0.009 | [14] -0.005 | [15] -0.011 | [16] 0.01 | [17] 0.017 | [18] -0.014 | [19] -0.008 | [20] 0.011

NUP54 (UniProt Q7Z3B4)
inactive: [1] -0.019 | [2] 0.027 | [3] 0.067 | [4] 0.031 | [5] -0.048 | [6] 0.03 | [7] -0.21 | [8] 0.092 | [9] 0.01 | [10] 0.003 | [11] -0.031 | [12] -0.011 | [13] 0.015 | [14] -0.037 | [15] 0.013 | [16] 0.014 | [17] 0.194 | [18] -0.004 | [19] 0.016 | [20] -0.016

ODR4 (UniProt Q5SWX8)
inactive: [1] 0.041 | [2] -0.033 | [3] 0.014 | [4] 0.016 | [5] -0.103 | [6] 0.015 | [7] 0.107 | [8] -0.095 | [9] 0.019 | [10] 0.035 | [11] -0.01 | [12] 0.058 | [13] -0.006 | [14] 0.006 | [15] -0.037 | [16] 0.021 | [17] 0.059 | [18] 0.051 | [19] 0.012 | [20] -0.059

2 records picked at random from those above, as already listed:
OXA1L (UniProt Q15070)
inactive: [1] -0.01 | [2] 0.001 | [3] -0.003 | [4] -0.04 | [5] 0 | [6] 0.016 | [7] -0.137 | [8] -0.022 | [9] -0.048 | [10] -0.012 | [11] 0.018 | [12] 0.006 | [13] 0.034 | [14] -0.024 | [15] -0.077 | [16] 0.017 | [17] -0.04 | [18] 0.038 | [19] -0.078 | [20] -0.068

OGFR (UniProt Q9NZT2)
inactive: [1] -0.033 | [2] 0.025 | [3] 0.003 | [4] -0.012 | [5] -0.067 | [6] 0.004 | [7] 0.12 | [8] -0.039 | [9] 0.022 | [10] 0.053 | [11] 0.022 | [12] -0.089 | [13] 0.002 | [14] -0.015 | [15] -0.03 | [16] 0.02 | [17] 0.089 | [18] -0.003 | [19] -0.003 | [20] -0.004

Later entries:

OSBPL6 isoform 5 (UniProt Q9BZF3)
inactive: [1] -0.026 | [2] -0.021 | [3] -0.015 | [4] -0.052 | [5] -0.072 | [6] 0.015 | [7] -0.004 | [8] 0.084 | [9] -0.009 | [10] -0.035 | [11] -0.056 | [12] -0.05 | [13] -0.043 | [14] -0.063 | [15] -0.047 | [16] -0.005 | [17] 0.015 | [18] -0.068 | [19] -0.004 | [20] 0.164

OPLAH (UniProt O14841)
inactive: [1] -0.014 | [2] 0.006 | [3] 0.006 | [4] -0.005 | [5] -0.043 | [6] 0.039 | [7] -0.014 | [8] 0.005 | [9] -0.021 | [10] 0.005 | [11] -0.032 | [12] -0.101 | [13] 0.062 | [14] -0.002 | [15] 0.02 | [16] 0.001 | [17] 0.062 | [18] 0.016 | [19] -0.007 | [20] -0.008

PAICS (UniProt E9PBS1)
inactive: [1] -0.086 | [2] -0.033 | [3] 0.025 | [4] -0.065 | [5] 0.015 | [6] 0.242 | [7] 0.381 | [8] -0.008 | [9] -0.062 | [10] -0.101 | [11] 0.269 | [12] 0.11 | [13] -0.194 | [14] 0.082 | [15] -0.081 | [16] 0.026 | [17] -0.028 | [18] -0.085 | [19] 0.099 | [20] 0.126

ORC2 (UniProt Q13416)
inactive: [1] 0.048 | [2] 0.007 | [3] 0.003 | [4] -0.077 | [5] -0.048 | [6] 0.002 | [7] -0.002 | [8] -0.085 | [9] 0.007 | [10] 0.049 | [11] 0.034 | [12] -0.161 | [13] 0.038 | [14] 0.034 | [15] -0.008 | [16] 0.018 | [17] 0.094 | [18] 0.012 | [19] -0.002 | [20] -0.011

PACC1 (UniProt Q9H813)
inactive: [1] -0.034 | [2] 0.046 | [3] 0.009 | [4] 0.108 | [5] -0.035 | [6] -0.05 | [7] -0.006 | [8] 0.04 | [9] 0.152 | [10] 0.061 | [11] 0.003 | [12] -0.003 | [13] -0.1 | [14] -0.04 | [15] -0.385 | [16] -0.059 | [17] 0.021 | [18] -0.042 | [19] -0.138 | [20] -0.085

PACSIN3 (UniProt Q9UKS6)
inactive: [1] -0.199 | [2] 0.012 | [3] 0.269 | [4] -0.199 | [5] -0.01 | [6] 0.007 | [7] -0.046 | [8] 0.079 | [9] -0.034 | [10] 0.004 | [11] 0.081 | [12] 0.022 | [13] -0.039 | [14] -0.087 | [15] -0.101 | [16] -0.045 | [17] -0.054 | [18] -0.056 | [19] -0.013 | [20] 0.029

OCRL (UniProt Q01968)
inactive: [1] 0.168 | [2] 0.014 | [3] 0.04 | [4] 0.018 | [5] -0.057 | [6] -0.032 | [7] -0.074 | [8] 0.049 | [9] 0.027 | [10] 0.019 | [11] -0.002 | [12] -0.105 | [13] 0.074 | [14] 0.123 | [15] -0.051 | [16] 0.045 | [17] -0.006 | [18] 0.016 | [19] -0.082 | [20] 0.049

NUP93 (UniProt Q8N1F7)
inactive: [1] -0.001 | [2] 0.014 | [3] 0.036 | [4] -0.069 | [5] -0.094 | [6] 0.044 | [7] -0.048 | [8] -0.079 | [9] 0.013 | [10] 0.028 | [11] -0.006 | [12] -0.085 | [13] -0.013 | [14] 0.023 | [15] -0.097 | [16] 0.029 | [17] 0.027 | [18] 0.01 | [19] -0.007 | [20] 0.014

PANK1 (UniProt Q8TE04)
inactive: [1] 0.086 | [2] 0.036 | [3] 0.097 | [4] -0.231 | [5] -0.063 | [6] 0.056 | [7] 0.226 | [8] -0.253 | [9] 0 | [10] 0.052 | [11] 0.002 | [12] 0.025 | [13] 0.051 | [14] -0.082 | [15] -0.076 | [16] 0.312 | [17] 0.173 | [18] 0.001 | [19] -0.096 | [20] 0.072
